PubChem BioAssay AID1259254 | NCATS | 2017

- Test: 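Genome-wide screen for genes that prevent DNA re-replication in cancer cells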 (primary screen)
- Cells: human HCT116 colorectal cancer cells
- Reagents: single siRNA against human genes
- Timing: 3 days
- Measurement: 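Nuclei stained with Hoechst and imaged; cell-cycle phase assigned by DNA content; G2 share scaled per plate, non-targeting siRNA 0%, GMNN siRNA 100%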
- Reading the numbers: G2 robust z-score: higher = more G2 cells, more excess DNA replication
- Rule for the call: 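Active siRNAs have a G2 robust z of 5 or more median absolute deviations over the median, which in these data means about 38% or higher of GMNN control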
The deposit covers about 59,000 reagents; below is a random part of them. Over the whole deposit, about 1,550 (2.6%) were called active. 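G2 share is only a proxy for re-replication; each gene was hit by three separate siRNAs, and active genes were retested.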 Unmarked entries are inactive. Reagents against one gene are numbered here. Further read-outs or replicates are left out here. Not given: the amount of reagent.

G2 robust z-score, by gene and reagent
ZZZ3 (zinc finger ZZ-type containing 3): #1 3.88; #2 1.06; #3 -0.727
GALNT7 (polypeptide N-acetylgalactosaminyltransferase 7): #1 -0.142; #2 -0.7; #3 -0.403
VPS13C (vacuolar protein sorting 13 homolog C): #1 -0.18; #2 -0.277; #3 -1.06
WNT11 (Wnt family member 11): #1 3.26; #2 0.401; #3 -0.34
C7 (complement C7): #1 -0.663; #2 0.636; #3 -0.589
LOC100289495: #1 2.55; #2 -0.225; #3 -0.466
EPOR (erythropoietin receptor): #1 1.29; #2 0.532; #3 0.324
GCH1 (GTP cyclohydrolase 1): #1 -1.37; #2 -0.674; #3 0.299
GPR4 (G protein-coupled receptor 4): #1 0.887; #2 0.38; #3 0.069
IMMP1L (inner mitochondrial membrane peptidase subunit 1): #1 -0.237; #2 -0.282; #3 -0.083

Laid out differently: results already given.
| gene | reagent no. | G2 robust z-score |
| --- | --- | --- |
| WNT11 (Wnt family member 11) | 3 | -0.34 |
| C7 (complement C7) | 1 | -0.663 |
| C7 (complement C7) | 2 | 0.636 |
| C7 (complement C7) | 3 | -0.589 |
| LOC100289495 | 1 | 2.55 |

Continued.
G2 robust z-score, by gene and reagent
PRR15 (proline rich 15): #1 1.74; #2 2.93; #3 -0.808
TMEM9B (TMEM9 domain family member B): #1 1.1; #2 0.0729; #3 0.551
BRWD3 (bromodomain and WD repeat domain containing 3): #1 0.253; #2 -0.718; #3 0.387
BTG1 (BTG anti-proliferation factor 1): #1 3.99; #2 -0.492; #3 -0.506
QSER1 (glutamine and serine rich 1): #1 3; #2 1.01; #3 -0.874
KLHL30 (kelch like family member 30): #1 -0.196; #2 -1.05; #3 0.422
